This is one part of the list. This is a noisy data set.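 Many melting curves are irregular; where none melted, Tm was taken as 64 °C.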
Compound: CCc1cnccc1C(=O)Nc1cc2c(cc1F)NC(=O)CC2
Test: melting temperature shift (DMSO Tm minus MBE1-treated Tm) in cellular thermal proteome profiling; higher = less thermal stabilization by MBE1 (negative = stabilized by MBE1)
Settings: A375

Amino acid sequences for entries named in this document (tags omitted). A change or cut given only in a name is not applied to a line headed by its entry.
UniProt Q9UK61: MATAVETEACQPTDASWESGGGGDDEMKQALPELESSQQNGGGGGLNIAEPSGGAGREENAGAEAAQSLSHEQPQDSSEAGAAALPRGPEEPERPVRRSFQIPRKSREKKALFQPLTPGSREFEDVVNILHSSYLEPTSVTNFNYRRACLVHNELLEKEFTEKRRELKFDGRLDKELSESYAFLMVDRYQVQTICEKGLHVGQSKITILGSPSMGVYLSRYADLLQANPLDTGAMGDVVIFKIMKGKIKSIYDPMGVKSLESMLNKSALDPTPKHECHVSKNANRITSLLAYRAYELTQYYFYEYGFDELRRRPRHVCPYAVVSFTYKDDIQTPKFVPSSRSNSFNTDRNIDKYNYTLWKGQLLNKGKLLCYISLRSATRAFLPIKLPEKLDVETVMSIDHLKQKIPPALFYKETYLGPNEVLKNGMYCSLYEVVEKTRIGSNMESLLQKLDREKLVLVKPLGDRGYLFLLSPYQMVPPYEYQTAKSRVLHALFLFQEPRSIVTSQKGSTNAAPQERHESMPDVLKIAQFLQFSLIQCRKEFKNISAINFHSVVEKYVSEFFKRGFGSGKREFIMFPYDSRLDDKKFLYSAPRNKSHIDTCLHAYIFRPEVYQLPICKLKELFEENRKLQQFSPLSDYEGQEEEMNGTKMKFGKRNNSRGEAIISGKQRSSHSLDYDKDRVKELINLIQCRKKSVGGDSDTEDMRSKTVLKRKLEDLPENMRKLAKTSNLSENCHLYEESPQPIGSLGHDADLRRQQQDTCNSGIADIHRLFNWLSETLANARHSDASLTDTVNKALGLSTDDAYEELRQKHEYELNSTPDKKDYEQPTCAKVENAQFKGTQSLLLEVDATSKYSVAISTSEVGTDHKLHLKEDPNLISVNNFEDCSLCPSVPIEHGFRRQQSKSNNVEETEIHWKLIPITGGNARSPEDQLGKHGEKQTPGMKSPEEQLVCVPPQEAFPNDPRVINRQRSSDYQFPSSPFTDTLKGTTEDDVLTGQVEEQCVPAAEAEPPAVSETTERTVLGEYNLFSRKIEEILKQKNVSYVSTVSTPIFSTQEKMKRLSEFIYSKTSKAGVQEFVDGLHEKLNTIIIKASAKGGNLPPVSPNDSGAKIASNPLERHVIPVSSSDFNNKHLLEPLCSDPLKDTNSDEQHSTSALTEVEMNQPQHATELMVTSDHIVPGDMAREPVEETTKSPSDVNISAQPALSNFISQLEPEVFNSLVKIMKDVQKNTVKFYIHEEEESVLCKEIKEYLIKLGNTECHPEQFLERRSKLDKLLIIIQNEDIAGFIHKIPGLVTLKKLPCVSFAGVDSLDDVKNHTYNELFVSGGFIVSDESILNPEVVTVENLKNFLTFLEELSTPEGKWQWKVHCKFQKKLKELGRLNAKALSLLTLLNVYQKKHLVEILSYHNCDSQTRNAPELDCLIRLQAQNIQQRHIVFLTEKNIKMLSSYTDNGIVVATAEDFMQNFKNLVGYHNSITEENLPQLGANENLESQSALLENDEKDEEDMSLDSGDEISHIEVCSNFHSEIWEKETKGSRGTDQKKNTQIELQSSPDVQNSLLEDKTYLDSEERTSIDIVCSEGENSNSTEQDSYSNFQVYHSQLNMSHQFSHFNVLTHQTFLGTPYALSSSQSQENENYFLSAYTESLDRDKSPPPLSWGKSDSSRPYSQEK
UniProt Q9UMR2: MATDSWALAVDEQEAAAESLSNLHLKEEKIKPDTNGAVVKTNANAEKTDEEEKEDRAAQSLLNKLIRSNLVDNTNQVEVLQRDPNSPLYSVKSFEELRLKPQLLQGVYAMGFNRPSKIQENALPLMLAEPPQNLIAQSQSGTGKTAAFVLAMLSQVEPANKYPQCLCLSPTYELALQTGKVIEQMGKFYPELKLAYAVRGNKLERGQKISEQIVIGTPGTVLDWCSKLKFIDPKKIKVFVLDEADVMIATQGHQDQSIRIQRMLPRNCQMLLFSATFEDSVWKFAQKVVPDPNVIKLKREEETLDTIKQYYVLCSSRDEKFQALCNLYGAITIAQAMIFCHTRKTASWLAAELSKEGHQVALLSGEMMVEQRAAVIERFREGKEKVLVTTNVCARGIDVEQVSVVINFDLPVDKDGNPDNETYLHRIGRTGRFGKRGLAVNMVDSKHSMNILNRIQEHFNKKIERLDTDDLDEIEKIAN
UniProt Q9Y262, whole entry: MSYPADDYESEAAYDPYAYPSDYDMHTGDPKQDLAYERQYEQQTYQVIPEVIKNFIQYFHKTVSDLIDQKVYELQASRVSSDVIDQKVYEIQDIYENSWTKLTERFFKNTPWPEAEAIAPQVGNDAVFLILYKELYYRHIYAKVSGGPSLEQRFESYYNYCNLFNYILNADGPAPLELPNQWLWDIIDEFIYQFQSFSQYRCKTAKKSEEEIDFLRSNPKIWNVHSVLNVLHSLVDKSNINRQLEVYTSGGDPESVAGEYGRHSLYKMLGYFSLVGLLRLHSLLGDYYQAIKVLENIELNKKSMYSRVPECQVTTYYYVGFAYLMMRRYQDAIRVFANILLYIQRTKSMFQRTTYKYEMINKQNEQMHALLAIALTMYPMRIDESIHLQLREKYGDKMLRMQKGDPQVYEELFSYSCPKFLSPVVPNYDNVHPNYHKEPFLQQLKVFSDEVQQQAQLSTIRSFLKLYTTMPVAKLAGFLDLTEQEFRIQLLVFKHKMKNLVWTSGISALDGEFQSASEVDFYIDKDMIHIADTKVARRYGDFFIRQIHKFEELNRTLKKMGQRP
UniProt Q9UKT5: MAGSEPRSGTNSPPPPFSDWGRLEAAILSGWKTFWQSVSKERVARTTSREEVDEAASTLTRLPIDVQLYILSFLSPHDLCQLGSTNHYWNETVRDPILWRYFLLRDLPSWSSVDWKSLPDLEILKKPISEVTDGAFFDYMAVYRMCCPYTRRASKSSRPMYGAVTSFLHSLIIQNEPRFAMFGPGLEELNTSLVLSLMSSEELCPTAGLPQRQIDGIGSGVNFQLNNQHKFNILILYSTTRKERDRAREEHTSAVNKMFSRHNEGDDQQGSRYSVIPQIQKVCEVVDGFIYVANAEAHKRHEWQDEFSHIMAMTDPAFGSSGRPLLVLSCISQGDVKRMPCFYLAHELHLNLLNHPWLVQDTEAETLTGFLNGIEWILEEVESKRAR
UniProt Q9Y2G5: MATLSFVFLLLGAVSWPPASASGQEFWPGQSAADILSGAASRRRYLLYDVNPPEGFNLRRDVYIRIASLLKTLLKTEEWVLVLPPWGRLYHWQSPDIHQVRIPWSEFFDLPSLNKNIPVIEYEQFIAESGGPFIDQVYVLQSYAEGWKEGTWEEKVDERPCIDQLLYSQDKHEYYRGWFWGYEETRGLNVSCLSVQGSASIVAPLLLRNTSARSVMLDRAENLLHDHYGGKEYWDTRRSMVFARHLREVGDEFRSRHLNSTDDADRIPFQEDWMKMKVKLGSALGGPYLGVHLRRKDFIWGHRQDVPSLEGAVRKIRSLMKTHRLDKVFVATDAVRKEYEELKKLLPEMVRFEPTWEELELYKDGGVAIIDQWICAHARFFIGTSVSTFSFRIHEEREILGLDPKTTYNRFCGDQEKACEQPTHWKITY
UniProt Q9UPT9: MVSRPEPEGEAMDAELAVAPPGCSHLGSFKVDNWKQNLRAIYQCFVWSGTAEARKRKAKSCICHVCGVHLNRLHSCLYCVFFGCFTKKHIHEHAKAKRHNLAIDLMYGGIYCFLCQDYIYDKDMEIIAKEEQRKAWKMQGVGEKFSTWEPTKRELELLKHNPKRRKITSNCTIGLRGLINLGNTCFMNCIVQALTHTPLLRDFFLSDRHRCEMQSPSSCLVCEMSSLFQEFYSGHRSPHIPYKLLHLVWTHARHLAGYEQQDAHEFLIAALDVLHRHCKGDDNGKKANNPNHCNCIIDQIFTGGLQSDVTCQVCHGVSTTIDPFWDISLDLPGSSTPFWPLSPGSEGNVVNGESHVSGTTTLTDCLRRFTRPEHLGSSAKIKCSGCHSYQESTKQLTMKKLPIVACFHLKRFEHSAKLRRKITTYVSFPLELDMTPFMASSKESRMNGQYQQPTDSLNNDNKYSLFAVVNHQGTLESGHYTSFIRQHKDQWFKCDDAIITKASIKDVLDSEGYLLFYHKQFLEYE
UniProt Q9UQ88: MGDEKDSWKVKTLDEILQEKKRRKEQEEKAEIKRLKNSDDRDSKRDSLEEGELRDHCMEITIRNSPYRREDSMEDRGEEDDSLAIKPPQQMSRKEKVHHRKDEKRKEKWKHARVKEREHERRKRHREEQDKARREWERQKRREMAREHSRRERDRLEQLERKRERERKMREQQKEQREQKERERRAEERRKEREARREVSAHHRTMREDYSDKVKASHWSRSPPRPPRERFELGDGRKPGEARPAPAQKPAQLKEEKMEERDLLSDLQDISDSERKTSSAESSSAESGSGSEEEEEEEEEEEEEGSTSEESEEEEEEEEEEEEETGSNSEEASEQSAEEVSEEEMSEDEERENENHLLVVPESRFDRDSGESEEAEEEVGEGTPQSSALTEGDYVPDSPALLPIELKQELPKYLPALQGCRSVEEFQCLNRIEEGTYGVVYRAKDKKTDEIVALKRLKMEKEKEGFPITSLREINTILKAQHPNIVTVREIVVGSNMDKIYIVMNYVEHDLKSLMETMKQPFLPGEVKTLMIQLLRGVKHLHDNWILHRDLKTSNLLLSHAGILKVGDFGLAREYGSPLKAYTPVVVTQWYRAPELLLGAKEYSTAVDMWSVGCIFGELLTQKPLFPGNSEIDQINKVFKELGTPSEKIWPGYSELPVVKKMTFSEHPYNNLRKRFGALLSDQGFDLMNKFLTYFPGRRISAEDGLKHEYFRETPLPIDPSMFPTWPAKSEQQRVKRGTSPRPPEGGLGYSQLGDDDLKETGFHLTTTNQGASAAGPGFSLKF
UniProt Q9Y255: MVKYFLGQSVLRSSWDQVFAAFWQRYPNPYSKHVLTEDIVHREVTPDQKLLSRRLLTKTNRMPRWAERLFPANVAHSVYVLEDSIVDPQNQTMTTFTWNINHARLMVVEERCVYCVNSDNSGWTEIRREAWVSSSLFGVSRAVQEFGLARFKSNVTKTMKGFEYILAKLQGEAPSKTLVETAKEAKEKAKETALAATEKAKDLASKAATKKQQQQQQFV
UniProt Q9UGJ1, whole entry: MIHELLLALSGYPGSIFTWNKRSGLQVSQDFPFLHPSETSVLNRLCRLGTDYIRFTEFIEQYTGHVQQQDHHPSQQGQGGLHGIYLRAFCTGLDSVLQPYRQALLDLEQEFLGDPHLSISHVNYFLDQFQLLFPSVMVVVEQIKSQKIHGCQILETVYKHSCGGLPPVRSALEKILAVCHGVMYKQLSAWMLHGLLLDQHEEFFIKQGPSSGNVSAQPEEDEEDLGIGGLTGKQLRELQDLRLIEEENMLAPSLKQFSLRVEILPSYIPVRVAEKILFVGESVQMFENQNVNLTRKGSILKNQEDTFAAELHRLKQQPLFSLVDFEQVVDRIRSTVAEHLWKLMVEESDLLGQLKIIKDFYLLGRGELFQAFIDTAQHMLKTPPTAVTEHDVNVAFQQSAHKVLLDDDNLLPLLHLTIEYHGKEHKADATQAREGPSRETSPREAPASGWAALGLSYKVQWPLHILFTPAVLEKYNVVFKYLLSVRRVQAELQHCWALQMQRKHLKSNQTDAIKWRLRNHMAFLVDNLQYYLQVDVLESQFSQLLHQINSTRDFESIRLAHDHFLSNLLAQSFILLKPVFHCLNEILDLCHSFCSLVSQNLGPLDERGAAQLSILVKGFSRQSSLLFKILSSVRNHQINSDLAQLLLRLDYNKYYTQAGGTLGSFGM
UniProt Q9UQ90: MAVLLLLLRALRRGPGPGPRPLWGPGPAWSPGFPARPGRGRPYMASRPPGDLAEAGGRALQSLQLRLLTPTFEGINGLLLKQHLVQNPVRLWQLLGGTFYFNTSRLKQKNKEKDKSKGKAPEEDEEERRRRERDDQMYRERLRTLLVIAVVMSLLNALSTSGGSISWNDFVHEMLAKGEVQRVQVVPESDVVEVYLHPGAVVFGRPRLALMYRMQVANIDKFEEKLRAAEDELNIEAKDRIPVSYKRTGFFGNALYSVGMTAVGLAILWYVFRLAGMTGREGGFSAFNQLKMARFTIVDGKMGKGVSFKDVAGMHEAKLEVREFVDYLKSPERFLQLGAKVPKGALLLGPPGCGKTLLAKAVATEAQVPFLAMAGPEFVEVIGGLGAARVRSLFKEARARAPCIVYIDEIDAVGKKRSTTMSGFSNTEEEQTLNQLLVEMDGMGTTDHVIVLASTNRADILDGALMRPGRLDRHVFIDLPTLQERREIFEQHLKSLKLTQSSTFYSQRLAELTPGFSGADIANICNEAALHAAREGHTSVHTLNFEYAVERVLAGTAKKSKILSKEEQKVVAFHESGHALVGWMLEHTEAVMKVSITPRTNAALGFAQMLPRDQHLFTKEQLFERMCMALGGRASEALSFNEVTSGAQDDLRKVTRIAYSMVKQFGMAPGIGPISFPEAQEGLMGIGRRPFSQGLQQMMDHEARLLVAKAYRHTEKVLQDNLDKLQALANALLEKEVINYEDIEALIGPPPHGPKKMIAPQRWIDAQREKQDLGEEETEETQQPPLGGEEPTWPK

Target	melting temperature shift (MBE1 concentration: 100 nM) [°C]	melting temperature shift (MBE1 concentration: 1 uM) [°C]
SLC12A6 (UniProt Q9UHW9)	-1.01	-2.46
UniProt Q9UHD8	-0.516	0.00671
PSMD13 (UniProt Q9UNM6)	-0.725	0.446
UniProt Q9UK61	-0.895	-0.263
TRMT6 (UniProt Q9UJA5)	-1.01	0.385
UniProt Q9UMR2	0.0855	0.244
LIMD1 (UniProt Q9UGP4)	-0.915	1.43
EIF3L (UniProt Q9Y262)	-0.208	0.0305
GPN3 (UniProt Q9UHW5)	-3.54	4.58
UniProt Q9UIS9	-0.353	-1.23
FBXO4 (UniProt Q9UKT5)	-0.317	0.659
UniProt Q9Y2H1	0.476	-0.183
DCTN4 (UniProt Q9UJW0)	-6.54	0.1
POFUT2 (UniProt Q9Y2G5)	0.168	-0.201
TMEM2 (UniProt Q9UHN6)	-3.6	-4.05
UniProt Q9Y251	-2.02	-2.29
RASAL2 (UniProt Q9UJF2)	-0.687	-0.296
USP22 (UniProt Q9UPT9)	-1	-0.154
PPIE (UniProt Q9UNP9)	-1.24	-2.07
UniProt Q9UJJ9	-2.36	1.19
UniProt Q9UQ88	-0.418	-0.874
SWAP70 (UniProt Q9UH65)	-0.154	-0.207
PRELID1 (UniProt Q9Y255)	-0.646	0.446
ATP6V1H (UniProt Q9UI12)	-1.28	-0.501
TUBGCP4 (UniProt Q9UGJ1)	0.692	0.503
SPG7 (UniProt Q9UQ90)	-0.811	-0.0794

In a second layout: results already given
Target | melting temperature shift (MBE1 concentration: 100 nM) [°C] | melting temperature shift (MBE1 concentration: 1 uM) [°C]
DCTN4 (UniProt Q9UJW0) | -6.54 | 0.1
POFUT2 (UniProt Q9Y2G5) | 0.168 | -0.201
